Results deposited as PubChem BioAssay AID602196 (INSERM, 2012)

Screen: 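Genes whose knock-down alters cisplatin killing of lung cancer cells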
Cell system: human A549 lung cancer cells
Reagent: siRNA pair against human genes
Timing: 48 h transfection before cisplatin; time from cisplatin to read-out not stated
Conditions: cisplatin at a dose killing half of control-siRNA cells; exact dose and duration not given
Read-out: 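Cisplatin cell death as a shift from the 50% death seen with control siRNA; siRNAs toxic or growth-blocking alone scored 0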
Reading the numbers: two-siRNA summed score (-2 to +2): higher = both siRNAs protect from cisplatin killing; -2 means both sensitise; mean protection from cisplatin (shift in death) and protection from cisplatin (shift in death), siRNA C: higher = protection from cisplatin killing
Rule for the call: 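siRNAs harmful alone (LDH or WST-1) get 0; others get +1 for less and -1 for more cisplatin killing; genes are active when the two siRNAs give the same sign, summing to ±2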
Calls: active = both siRNAs shift cisplatin killing the same way; inactive = no consistent shift, or siRNA harmful alone
The deposit covers about 23,000 reagents; shown is a part drawn at random. 455 of them (2%) count as active. 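Active includes both protection and sensitisation; some change values fall well beyond the stated -50 to +50 range.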 Further read-outs or replicates are left out here. The record does not give: the amount of reagent.

Gene,two-siRNA summed score (-2 to +2),mean protection from cisplatin (shift in death) (%),"protection from cisplatin (shift in death), siRNA C (%)",activity call
KCTD7,0,7.4,8.1,inactive
RABEP2,0,-0.9,2.7,inactive
COL27A1,0,-0.3,-5.6,inactive
NPIPA1,0,5.8,14.7,inactive
DDX39A,-1,-15,-12.1,inactive
SLC25A37,0,1,-4,inactive
BIRC3,0,2,-2.1,inactive
TAF1D,0,5.8,6,inactive
NR1H3,-1,-10.6,-2.1,inactive
DUX4L1,0,7.8,8.5,inactive
LOC390349,0,31.7,63.9,inactive
STAT4,0,-5.9,-6,inactive
FGF8,0,-0.8,-7.1,inactive
LOC440872,0,6.3,8.6,inactive
OR8B3,0,12.8,14.2,inactive
PSEN1,0,-3.4,-25,inactive
INSM2,0,-3.5,-5.1,inactive
DICER1,0,-4.1,-3.6,inactive
RC3H2,-1,-18.6,-29.4,inactive
FAHD1,0,8.1,13.8,inactive

7 entries from above, sorted by “two-siRNA summed score (-2 to +2)”, high to low.
Gene,two-siRNA summed score (-2 to +2),mean protection from cisplatin (shift in death) (%),"protection from cisplatin (shift in death), siRNA C (%)",activity call
LOC440872,0,6.3,8.6,inactive
OR8B3,0,12.8,14.2,inactive
PSEN1,0,-3.4,-25,inactive
INSM2,0,-3.5,-5.1,inactive
DICER1,0,-4.1,-3.6,inactive
FAHD1,0,8.1,13.8,inactive
RC3H2,-1,-18.6,-29.4,inactive

Next results follow.
Gene,two-siRNA summed score (-2 to +2),mean protection from cisplatin (shift in death) (%),"protection from cisplatin (shift in death), siRNA C (%)",activity call
AFMID,0,-2,-1.9,inactive
LOC401905,0,5.6,4.3,inactive
UBL5,0,2.8,7.1,inactive
LOC389129,0,6.5,4.1,inactive
CUL7,0,0.3,1.7,inactive
EPO,0,-3.6,-3.3,inactive
LOC441734,0,2.7,3,inactive
SLC25A12,0,8,13.2,inactive
LOC399978,0,-1,8.8,inactive
RHEB,0,8.1,12.5,inactive
LOC390614,1,6.1,5.6,inactive
DKFZp762N1910,0,-3.4,-14.1,inactive
SPAG17,0,6,0.6,inactive
LOC402564,0,7.1,10.5,inactive
LOC389786,2,32.5,31.1,active
LOC389162,1,10,7.2,inactive
MYCL,0,5.3,9.9,inactive
LINC00654,0,29.7,11.7,inactive
LOC441139,1,6,-5.7,inactive
WASH3P,0,11.6,8.5,inactive
MRPS7,0,7.1,-1.4,inactive
LOC441341,1,4.9,-4.8,inactive
AP5B1,0,1.3,-9.5,inactive
TMUB2,0,-2.5,-4.5,inactive
NMD3,0,-3.7,-3,inactive
CMPK2,1,15.2,16.4,inactive
RNF40,0,7.4,-11.4,inactive
LRRC46,1,15.9,26.7,inactive
MRPS24,0,7.1,-5.5,inactive
NFATC2,0,5.8,-0.2,inactive
MIB2,1,12.2,20.7,inactive
OR51E1,0,-4.7,-6.2,inactive
LOC389703,0,7.6,7.2,inactive
ZFP69B,0,9.9,10.9,inactive
TPRG1,0,4.4,-0.4,inactive
ELK4,0,3.5,3.2,inactive
SAMD10,0,11.1,7.2,inactive
